# Where “and” joins values, the source holds several entries; their conditions need not be identical. Equal values may be shown once. The inconclusive results got no clear call from the source; some entries with a clear call stand among them for comparison. For some assays here: Potencies beside an inconclusive call are fits to weak or partial responses and may not hold up. A structure can be active in one record and inactive in another. Calls of active or inactive are those of the source. Unless noted, calls come from the whole dose curve.
# By UniProt entry, the sequences of proteins in these tests, tags left out. Where a name states a change or a piece, a line headed by the entry shows the natural chain unless it says otherwise.
# UniProt P28223, whole entry, looked up: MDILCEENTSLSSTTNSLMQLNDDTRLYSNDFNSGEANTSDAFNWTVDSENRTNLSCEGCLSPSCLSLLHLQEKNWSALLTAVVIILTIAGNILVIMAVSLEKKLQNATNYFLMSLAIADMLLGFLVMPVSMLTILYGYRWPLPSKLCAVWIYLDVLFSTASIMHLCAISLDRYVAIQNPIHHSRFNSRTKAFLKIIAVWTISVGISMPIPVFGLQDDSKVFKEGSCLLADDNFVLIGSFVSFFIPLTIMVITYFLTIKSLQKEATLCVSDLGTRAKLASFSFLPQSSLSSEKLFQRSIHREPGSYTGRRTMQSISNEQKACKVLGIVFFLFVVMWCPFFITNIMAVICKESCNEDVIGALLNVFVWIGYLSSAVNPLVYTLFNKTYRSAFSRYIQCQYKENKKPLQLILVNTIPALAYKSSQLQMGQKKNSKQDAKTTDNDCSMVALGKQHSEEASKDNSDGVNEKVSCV
# UniProt P11229: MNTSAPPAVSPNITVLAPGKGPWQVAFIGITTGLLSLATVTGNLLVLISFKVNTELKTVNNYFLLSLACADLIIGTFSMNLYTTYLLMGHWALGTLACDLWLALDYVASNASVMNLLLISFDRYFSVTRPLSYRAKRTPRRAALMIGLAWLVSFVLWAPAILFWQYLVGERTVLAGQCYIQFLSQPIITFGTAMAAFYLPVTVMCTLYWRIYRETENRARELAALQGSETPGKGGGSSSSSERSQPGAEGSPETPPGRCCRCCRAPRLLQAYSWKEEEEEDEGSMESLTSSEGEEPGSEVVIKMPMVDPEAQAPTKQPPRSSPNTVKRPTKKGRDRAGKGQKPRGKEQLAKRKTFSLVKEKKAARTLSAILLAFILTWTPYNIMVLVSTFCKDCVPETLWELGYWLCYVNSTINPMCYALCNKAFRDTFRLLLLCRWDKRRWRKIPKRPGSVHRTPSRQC
# UniProt P14416, whole entry, looked up: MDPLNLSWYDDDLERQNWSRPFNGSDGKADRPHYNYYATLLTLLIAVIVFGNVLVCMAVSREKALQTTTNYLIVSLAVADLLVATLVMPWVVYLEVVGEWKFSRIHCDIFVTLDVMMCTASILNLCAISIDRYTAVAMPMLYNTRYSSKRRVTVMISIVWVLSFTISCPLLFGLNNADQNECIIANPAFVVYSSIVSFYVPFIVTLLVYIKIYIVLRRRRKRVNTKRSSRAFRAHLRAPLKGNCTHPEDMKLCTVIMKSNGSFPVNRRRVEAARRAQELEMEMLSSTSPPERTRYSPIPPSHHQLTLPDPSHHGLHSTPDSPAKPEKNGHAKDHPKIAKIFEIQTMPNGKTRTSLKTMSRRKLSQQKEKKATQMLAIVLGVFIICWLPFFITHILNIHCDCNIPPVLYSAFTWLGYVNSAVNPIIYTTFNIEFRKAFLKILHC
# Tests used:
# [1] = Nuclear factor erythroid 2-related factor 2/antioxidant responsive element (Nrf2/ARE) small molecule agonists: luciferase reporter gene qHTS assay in human keratinocytes (AID 1919969); note: nearly all actives have a fitted effect of over 35% in size; note: potency is the fitted concentration of half-maximal effect
# [2] = target: 5-hydroxytryptamine receptor 2A (Homo sapiens) (UniProt P28223); assay: 5-hydroxytryptamine receptor 2A (HTR2A) small molecule antagonists, cell-based qHTS assay (AID 1963586); note: nearly all actives have a fitted effect of over 45% in size; note: potency is the fitted concentration of half-maximal effect
# Procedure, shortened: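 Antagonist-mode intracellular calcium assay: DOI (4 nM) added after 5 min compound pre-incubation at room temperature to dye-loaded HTR2A-CHO cells. Fluorescence followed for 3 min, sampled every second.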
# [3] = target: Muscarinic acetylcholine receptor M1 (Homo sapiens) (UniProt P11229); assay: Cholinergic receptor muscarinic 1 (CHRM1) small molecule antagonists, cell-based qHTS assay (AID 1963588); note: nearly all actives have a fitted effect of over 40% in size; note: potency is the fitted concentration of half-maximal effect
# Procedure, shortened: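 CHRM1-CHO calcium-flux assay, antagonist mode. Cells were seeded 18 h, dye-loaded 1 h at 37 C and given compound for 5 min at RT, then acetylcholine was added at 50nM. FDSS fluorescence was read 3 min; 15 concentrations, three runs.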
# [4] = cAMP Responsive Elements (CRE) small molecule antagonists, cell-based qHTS assay (AID 1963591; active = well fitted inhibition curve with a large enough effect in the signal ratio in the repeat runs, not every such curve was filed as active; inconclusive = weak or mixed curves, or effect the other way; the % refers to the signal ratio; note: potency is the fitted concentration of half-maximal effect; for activity change, negative = inhibition: % is set by controls: 0 for no effect and ±100 for the full control effect); details: CRE-bla HEK293T, beta-lactamase FRET ratio; activity change, negative = inhibition: at 92.4 µM (top of the series) unless noted
# Procedure, shortened: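 CRE-bla HEK293T cells plated 18 h, then given compound plus NKH477 at 0.25 uM final for 3 h at 37C. Beta-lactamase reporter read with LiveBLAzer B/G FRET substrate after 2 h at room temperature.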
# [5] = target: D(2) dopamine receptor (Homo sapiens) (UniProt P14416); assay: Dopamine D2 receptor (DRD2) small molecule antagonists, cell-based qHTS assay (AID 1963595; active = well fitted inhibition curve with a large enough effect in the signal ratio in the repeat runs, with a control signal flat; inconclusive = weak or mixed curves, or effect the other way; the % refers to the signal ratio; note: % is set by controls: 0 for no effect and ±100 for the full control effect); details: HEK293-DRD2 cAMP HTRF antagonist mode; activity change, negative = inhibition: at 92.4 µM (top of the series) unless noted
# Procedure, shortened: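 HEK293 cells stably expressing DRD2 were preincubated with 0.1 mM Ro20-1724, then with compound for 10 min at room temperature. Cells were stimulated with 200 nM NKH477 plus 12 nM quinpirole for 30 min, and cAMP was read by HTRF.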
# [6] = target: Beta-2 adrenergic receptor (Homo sapiens) (UniProt P07550); assay: Adrenergic beta2 receptor (ADRB2) small molecule antagonists, cell-based qHTS assay (AID 1963592); details: CHO-ADRB2 cells, isoproterenol-stimulated cAMP HTRF ratio, 0.5 h; activity change, negative = inhibition: at 92.4 µM (top of the series) unless noted; note: % is set by controls: 0 for no effect and ±100 for the full control effect; nearly all actives have a fitted effect of over 50% in size
# Procedure, shortened: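 Cells (CHO, stable ADRB2 overexpression) incubated 18-20hr at 37C; compounds added from DMSO; agonist mix (1nM isoproterenol, 100uM IBMX, 25uM Ro-20-1724) added; 0.5hr RT; d2-cAMP and anti-cAMP-cryptate added; 1hr RT; 665/615 nm read.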
# [7] = target: Beta-2 adrenergic receptor (Homo sapiens) (UniProt P07550); assay: Adrenergic beta2 receptor (ADRB2) small molecule agonists, cell-based qHTS assay (AID 1963593); details: CHO-ADRB2 cells, cAMP HTRF, 30 min; note: potency is the fitted concentration of half-maximal effect;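 for activation: CHO cells stably overexpressing human ADRB2; % is set by controls: 0 for no effect and ±100 for the full control effect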
# Procedure, shortened: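 CHO cells stably over-expressing ADRB2 were plated overnight at 37C, then dosed with compounds plus a stimulation mix containing 100uM IBMX and 25uM Ro-20-1724 for 0.5hr at room temperature. cAMP was measured by HTRF competition, 1hr.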
# [8] = cAMP Responsive Elements (CRE) small molecule agonists, cell-based qHTS assay (AID 1963590); details: CRE-bla HEK293T, beta-lactamase FRET ratio, 3 h; activation: at 92.4 µM (top of the series) unless noted; note: potency is the fitted concentration of half-maximal effect
# Procedure, shortened: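 CRE-bla HEK 293T cells, 2,000/well in DMEM with 10% dialyzed FBS and 25 mM HEPES, pre-incubated 18 h at 37 C, then exposed to compound 3 h at 37 C. Beta-lactamase reporter read with LiveBLAzer B/G FRET substrate after 2 h at room temperature.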
# [9] = target: 5-hydroxytryptamine receptor 2A (Homo sapiens) (UniProt P28223); assay: 5-hydroxytryptamine receptor 2A (HTR2A) small molecule agonists, cell-based qHTS assay (AID 1963587); details: HTR2A-CHO cells, calcium flux fluorescence, agonist mode; activation: at 76.8 µM (top of the series); note: nearly all actives have a fitted effect of over 30% in size; note: potency is the fitted concentration of half-maximal effect; for activation: % is set by controls: 0 for no effect and ±100 for the full control effect
# Procedure, shortened: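 HTR2A-CHO cells, plated 18 h at 37 C/5% CO2, dye-loaded 1 h at 37 C; compounds in DMSO added by pin tool (agonist mode). Intracellular calcium flux read as kinetic fluorescence on FDSS over 2 min at 1 s intervals.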
# [10] = target: Muscarinic acetylcholine receptor M1 (Homo sapiens) (UniProt P11229); assay: Cholinergic receptor muscarinic 1 (CHRM1) small molecule agonists, cell-based qHTS assay (AID 1963589); details: CHRM1-CHO cells, agonist mode, calcium flux fluorescence; activation: at 76.8 µM (top of the series); note: nearly all actives have a fitted effect of over 35% in size; note: potency is the fitted concentration of half-maximal effect
# Procedure, shortened: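 CHO cells stably expressing human CHRM1 were loaded with calcium dye for 1 h at 37 C, then compound was added in agonist mode. Intracellular calcium fluorescence was followed kinetically at 1 s intervals. Fifteen concentrations were tested in three independent runs.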
# [11] = activation: at 92.4 µM (top of the series) unless noted
smiles,measurement,setting,value
CCC(=O)C(CC(C)N(C)C)(c1ccccc1)c1ccccc1 (stereo not given),Potency,[1],"inconclusive: 61.4 µM [activator, single point]"
same,Potency,[2],"inconclusive: 1.5 µM [inhibitor, full curve] and inconclusive: 4.69 µM [inhibitor, full curve, poor fit]"
same,Potency,[3],"inconclusive: 2.35 µM [inhibitor, full curve, poor fit]"
same,Potency,[4],"inconclusive: 27.4 µM [fluorescent] and inconclusive: 30.4 µM [fluorescent, partial curve] and inconclusive: 41.5 µM [fluorescent, partial curve, poor fit]"
same,"activity change, negative = inhibition",[5],inconclusive: -2.41%
COC(C)(C)C,Potency,[1],inactive
same,Potency,[2],inactive
same,Potency,[3],inactive
same,Potency,[6],inactive
same,Potency,[7]; [11],inactive
COc1cc2c(cc1OC)[C@@]13CCN4CC5=CCO[C@H]6CC(=O)N2[C@H]1[C@H]6[C@H]5C[C@H]43,Potency,[1],inactive
same,Potency,[2],inactive
same,activation,[7]; [11],inconclusive: -36.9%
O=S(=O)(O)OOS(=O)(=O)O,Potency,[1],"inconclusive: 76.7 µM [activator, partial curve, poor fit]"
same,Potency,[3],inactive
same,activation,[7]; [11],inconclusive: 9.7% and inconclusive: -3.4%
same,activation,[7]; at 92.4 µM (top of the series),inactive: -21% and inactive: 19.5%
C=CC(=O)OCCCCOC(=O)C=C,Potency,[1],active: 24.3 µM
same,Potency,[8],"inconclusive: 48.6 µM [rising, partial curve]"
same,"activity change, negative = inhibition",[4],inconclusive: 3.65%
same,activation,[7]; [11],inconclusive: -31%
COc1cc(CC(C)N)cc2c1OCO2 (stereo not given),Potency,[1],inactive
same,Potency,[9],active: 1.44 µM
same,Potency,[3],active: 15.6 µM
same,Potency,[7]; [11],"inconclusive: 28.5 µM [inhibitor, partial curve]"
O=C1c2ccccc2C(=O)c2ccccc21,Potency,[1],"inconclusive: 14.6 µM [activator, partial curve, poor fit]"
same,Potency,[2],"inconclusive: 0.0894 µM [inhibitor, single point]"
same,activation,[9],inactive: -4.26% [at 15.9 µM]
same,Potency,[10],"inconclusive: 1.65 µM [rising, full curve, poor fit]"
Cc1ccc(S(=O)(=O)N[C@@H](CCCCN)C(=O)CCl)cc1,Potency,[1],inactive
same,Potency,[2],"inconclusive: 8.18 µM [inhibitor, single point]"
same,Potency,[10],inactive
same,Potency,[7]; [11],"inconclusive: 5.96 µM [inhibitor, partial curve]"
C[N+](C)(C)CC(=O)[O-],Potency,[1],inactive
same,Potency,[2],"inconclusive: 47.2 µM [inhibitor, single point]"
same,Potency,[4],inactive
Clc1ccc2ccccc2c1,Potency,[1],"inconclusive: 70.7 µM [activator, single point]"
same,Potency,[3],inactive
same,activation,[7]; [11],inconclusive: 9.86%
Nc1cc2c3c(c1)C(c1ccccc1)=N[C@@H](NC(=O)c1cccnc1)C(=O)N3CC2,Potency,[1],inactive
same,Potency,[3],inactive
CN1CCC(O)(c2ccc(F)cc2)C(C(=O)c2ccc(F)cc2)C1 (stereo not given),Potency,[1],"inconclusive: 33.5 µM [activator, single point]"
same,Potency,[3],"inconclusive: 11.6 µM [inhibitor, partial curve, poor fit]"
CCC[CH2][Sn]([Cl])([Cl])[Cl],Potency,[1],"inconclusive: 34.9 µM [activator, single point] and inconclusive: 61.1 µM [activator, partial curve, poor fit]"
same,Potency,[9],inactive
same,Potency,[7]; [11],"inconclusive: 0.247 µM [inhibitor, single point]"
same,activation,[7]; [11],inconclusive: 29.7%
N#Cc1cccc(C#N)c1,Potency,[1],inactive
same,Potency,[2],inactive
same,Potency,[7]; [11],"inconclusive: 0.545 µM [inhibitor, single point]"
same,activation,[7]; [11],inconclusive: 4.05%
COC1=CC(=O)O[C@@H](/C=C/c2ccccc2)C1,Potency,[1],"inconclusive: 27.7 µM [activator, single point]"
same,Potency,[3],inactive
same,Potency,[8],"inconclusive: 55.3 µM [rising, partial curve]"
same,"activity change, negative = inhibition",[4],inconclusive: 6.16%
same,activation,[7]; [11],inconclusive: 20.4%
Brc1ccc(Oc2ccc(Br)cc2Br)c(Br)c1,Potency,[1],active: 6.12 µM
same,Potency,[8],"inconclusive: 77 µM [fluorescent, partial curve, poor fit]"
same,Potency,[4],inactive
same,Potency,[6],inactive
same,Potency,[7]; [11],inactive
CCCCC(CC)COP(=O)(Oc1ccccc1)Oc1ccccc1 (stereo not given),Potency,[1],active: 30.6 µM
same,Potency,[8],"inconclusive: 7.7 µM [rising, full curve, poor fit]"
same,"activity change, negative = inhibition",[4],inconclusive: 18.4%
same,Potency,[7]; [11],inactive

# Reformatted as tab-separated lines: entries from further up.
smiles	measurement	setting	value
COC(C)(C)C	Potency	[6]	inactive
same	Potency	[7]; [11]	inactive
COc1cc2c(cc1OC)[C@@]13CCN4CC5=CCO[C@H]6CC(=O)N2[C@H]1[C@H]6[C@H]5C[C@H]43	Potency	[1]	inactive
